In PubChem BioAssay AID485314 (National Center for Advancing Translational Sciences (NCATS), 2010):
Out of some 340,000 compounds screened, about 4,500 (1.3%) were called active. This list was built around the results that the source calls inconclusive (neither active nor inactive); the mix of calls is not that of the screen. Calls follow the shape of the dose curve; as a rule, active = well fitted inhibition curve with a large enough effect; inconclusive = small, poorly fitted or top-dose-only effect, or another doubt; inactive = no such curve, though single readings can be large or run the other way. Potencies of inconclusive entries are doubtful fits and often do not repeat.

Molecular target: DNA polymerase beta (Homo sapiens) (UniProt P06746)
Assay: qHTS Assay for Inhibitors of DNA Polymerase Beta
Settings: Pol beta primer extension/strand displacement, fluorescence kinetic; activity change, negative = inhibition: at 114 µM (top of the series)
How it was run: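 Values derive from four-parameter Hill fits of normalized kinetic data: reads at 0 and 10 min following addition of 50 nM substrate to 10 nM Pol beta preincubated 15 min with compound.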
% is scaled to controls: 0 for no effect and ±100 for the full control effect; potency is read from the fitted curve at half-maximal effect.

Compound	Potency	activity change, negative = inhibition
COc1ccccc1-c1cn[nH]c1-c1ccc(OCc2ccc(F)cc2)cc1O	inconclusive: 79.4 µM [inhibitor, single point]	–
O=C(Nc1cccc(-n2cccn2)c1)C1CCCN(Cc2cc3ccccc3[nH]2)C1 (configuration not stated)	inconclusive: 89.1 µM [inhibitor, single point]	–
Nc1ccc(-c2ccc(N)c([N+](=O)[O-])c2)cc1[N+](=O)[O-]	inconclusive: 22.4 µM [inhibitor, full curve]	–
CC(C)C[C@H]1CN=C(Nc2ccccc2)N1CC1CCCCC1	inconclusive: 100 µM [inhibitor, single point]	–
CCOC(=O)c1cccc(NC(=O)CCOc2ccccc2)c1	inconclusive: 89.1 µM [inhibitor, single point]	–
Cc1csc(SCC(=O)Nc2sccc2C#N)n1	active: 20 µM	–
Cc1cc(C)c(NC2=NS(=O)(=O)c3ccccc32)c(C)c1	inconclusive: 31.6 µM [inhibitor, full curve, poor fit]	–
Cc1cccc(OCCn2cc(/C=N/NC(=O)c3ccncc3)c3ccccc32)c1	inconclusive: 25.1 µM [inhibitor, single point]	–
Cc1ccc2oc(-c3ccccc3)nc2c1	inconclusive: 89.1 µM [inhibitor, single point]	–
Cc1ccc(S(=O)(=O)/N=C/c2ccco2)cc1	inconclusive: 39.8 µM [inhibitor, full curve, poor fit]	–
Brc1ccc(-c2noc(-c3ccccn3)n2)o1	inconclusive: 89.1 µM [inhibitor, single point]	–
N#CC(C#N)=Cc1cccn1-c1ccc(C(=O)O)cc1	active: 5.01 µM	–
CCOc1ccc(-n2c(C)c(C(C)=O)c3cc(O)ccc32)cc1	–	inactive: 2.99%
COc1cccc(CN2C(=O)c3cccc(N)c3C2=O)c1	inconclusive: 79.4 µM [inhibitor, single point]	–
CC(=O)Nc1ccc2c(c1)C(C)(C)C(C)N2C (configuration not stated)	inconclusive: 28.2 µM [inhibitor, single point]	–
O=C(COC(=O)CNC(=O)c1ccc(Cl)cc1Cl)NC1CCCCC1	–	inconclusive: -37.1% [inhibitor]
Cc1ccc(Nc2ncnc3ccccc23)cc1	inconclusive: 79.4 µM [inhibitor, single point]	–
CS(=O)(=O)c1ccccc1-c1nc(-c2ccc(C(F)(F)F)cc2)no1	inconclusive: 12.6 µM [inhibitor, full curve]	–
CCOC(=O)c1cc(C)n(CC2CCC(C(=O)Nc3ccc(OC)cc3)CC2)c1C (configuration not stated)	–	inactive: 25.9%
Fc1ccc(-c2cc3ncc4c(n3n2)-c2cc(Cl)ccc2OC4)cc1	–	inactive: 9.1%
COc1cccc2[nH]c(C(=O)NCCc3ccccc3)cc12	inconclusive: 39.8 µM [inhibitor, single point]	–
COc1ccc(/C=N/NC(=O)c2csc(-n3nc(C)cc3C(F)(F)F)n2)cc1	inconclusive: 89.1 µM [inhibitor, single point]	–
CC(C)N=c1scc(-c2cccs2)n1/N=C/c1ccc(O)c(O)c1O	active: 2.24 µM	–
O=C(COc1ccc(Cl)cc1)Nc1ccc2c(c1)C(=O)NC2=O	–	inactive: -17.4%

Compound	Potency	activity change, negative = inhibition
Nc1cccn2c(-c3ccc(Cl)c(Cl)c3)cnc12	–	inactive: -13.8%
CCOC(=O)c1cc(-c2ccccc2)sc1NC(=O)CSc1nncs1	inconclusive: 15.8 µM [inhibitor, partial curve]	–
CN1CCc2nc3sc(C(=O)C45CC6CC(CC(C6)C4)C5)c(N)c3cc2C1	active: 50.1 µM	–
O=C(O)C1Nc2ccc(Br)cc2C2C=CCC12 (configuration not stated)	active: 1.58 µM	–
CCN(Cc1ccccc1)S(=O)(=O)c1cc(C(=O)Nc2cc(Cl)cc(Cl)c2)ccc1F	–	inactive: -7.78%
Cn1ccc(C(=O)N/N=C/c2ccncc2)n1	inconclusive: 79.4 µM [inhibitor, single point]	–
Cc1cc(NC(=O)CSc2nnnn2-c2ccccc2)no1	inconclusive: 79.4 µM [inhibitor, single point]	–
Cc1cc(=O)c2n(Cc3ccc(Cl)cc3)nc[n+]2[nH]1	inconclusive: 89.1 µM [inhibitor, single point]	–
CC(=O)c1sc2nc(CSc3nnnn3-c3ccccc3)[nH]c(=O)c2c1C	active: 12.6 µM	–
COc1cc(NC(=O)c2c(C)oc3c2C2=NCCN2C=N3)cc(OC)c1OC	inconclusive: 70.8 µM [inhibitor, single point]	–
COC(=O)COc1ccc2c(c1C)O/C(=C\c1ccco1)C2=O	active: 50.1 µM	–
C#CCOc1c(Br)cc(/C=N\NC(=O)CN2CCOCC2)cc1OCC	inconclusive: 100 µM [inhibitor, partial curve, poor fit]	–
O=C(Oc1ccccc1N1CCOCC1)c1ccccc1	inconclusive: 89.1 µM [inhibitor, single point]	–
CC1CCC(N2CCN(S(=O)(=O)Cc3ccccc3)CC2)CC1 (configuration not stated)	inconclusive: 79.4 µM [inhibitor, single point]	–
Cc1ccc(NC(=S)NC(=O)c2ccc(-c3ccc(Cl)cc3)o2)c(O)c1	inconclusive: 3.98 µM [inhibitor, partial curve, poor fit]	–
CCn1cc(S(=O)(=O)c2ccccc2)c(=O)c2cc(F)c(N3CCN(c4ccccc4)CC3)cc21	–	inactive: 0.736%
Cc1csc(N2CCN(c3cc4c(cc3Cl)nc(-c3ccncc3)n4CCCN3CCCC3)CC2)n1	–	inactive: 12.1%
COc1ccc2nc3cccc(OC)c3nc2c1	active: 39.8 µM	–
CSc1nnc(C)c(=O)n1COC(=O)COc1ccccc1C	inconclusive: 89.1 µM [inhibitor, single point]	–
COc1cc(NC(=O)COCc2cc(-c3ccc4c(c3)OCO4)on2)cc(OC)c1	–	inactive: -19.1%
Cc1cc([N+](=O)[O-])nn1CC(=O)Nc1cccc2nonc12	inconclusive: 4.47 µM [inhibitor, full curve]	–
CC(C)Sc1ncc(Cl)c(C(=O)N(Cc2ccc(N(C)C)cc2)C2CCS(=O)(=O)C2)n1 (configuration not stated)	inconclusive: 39.8 µM [inhibitor, single point]	–
Cc1ccc(-c2noc(-c3ccccc3NC(=O)C3CC(=O)N(c4ccccc4C)C3)n2)cc1 (configuration not stated)	–	inactive: 3.61%
CCOC(=O)c1c(NC(=O)c2ccc(Br)o2)sc(C)c1CC	inconclusive: 100 µM [inhibitor, single point]	–

Compound	Potency	activity change, negative = inhibition
Cc1ccc(C(=O)Nc2ccccc2C(=O)N2CCOCC2)cc1[N+](=O)[O-]	inconclusive: 89.1 µM [inhibitor, single point]	–
COc1cc(/C=N/Nc2nnc3c(n2)[nH]c2ccccc23)ccc1O	inconclusive: 28.2 µM [inhibitor, single point]	–
O=C(Nc1cccc(-c2cn3ccccc3n2)c1)c1cc2ccccc2oc1=O	active: 3.98 µM	–
O=C(NNC(=O)c1ccccc1O)c1cccc(Br)c1	–	inactive: 24.7%
O=C(C1=NN(c2ccccc2)C(=O)CC1)N1CCc2ccccc2C1	inconclusive: 0.141 µM [inhibitor, full curve, poor fit]	–
CSc1ncc(C(=O)N2CCN(c3cc(Cl)ccc3C)CC2)c(C)n1	–	inactive: -17.3%
COc1cc(-c2nc(Cn3nnc(C(=O)Nc4ccc(C)cc4C)c3C)c(C)o2)cc(OC)c1OC	–	inactive: 1.27%
Cc1oc(-c2ccccc2F)nc1CS(=O)(=O)CC(=O)NCCc1ccc(Cl)cc1	inconclusive: 28.2 µM [inhibitor, full curve]	–
CCC(C)NC(=O)C1(O)c2ccccc2NC(=O)N1c1ccc(C)c(C)c1 (configuration not stated)	–	inactive: 35.1%
CCOc1ccc(CN2CCNC(=O)C2CC(=O)NCCC2=CCCCC2)cc1 (configuration not stated)	inconclusive: 89.1 µM [inhibitor, single point]	–
COc1ccc(S(=O)(=O)N(CC(=O)NCc2ccco2)c2ccccc2OC)cc1	–	inconclusive: -92.2% [inhibitor]
CCc1ccc(S(=O)(=O)/N=C2\C=C(Nc3cccc(C(=O)O)c3)C(=O)c3ccccc32)cc1	inconclusive: 89.1 µM [inhibitor, single point]	–
COc1ccc(OC)c(/C=C/C(=O)Nc2ccc(C(=O)OCCC(C)C)cc2)c1	–	inactive: -3.38%
O=S(=O)(NCc1ccc(Cl)cc1)c1ccc(-c2cnc(C3CC3)o2)cc1	inconclusive: 89.1 µM [inhibitor, single point]	–
CCOC(=O)Cc1csc(NC(=O)NC2(C(F)(F)F)Oc3cc(Cl)c(Cl)cc3O2)n1	–	inactive: -7.24%
CCN(CC)CCNC(=O)Nc1ccc2c(c1)N(Cc1ccccc1)C(=O)c1ccccc1S2	–	inactive: 8.58%
CN(C)/C=C/C(=O)c1ccc(-c2ccc(Cl)cc2Cl)o1	active: 31.6 µM	–
CCCCn1c(SCC(=O)NCc2ccco2)nc2ccccc2c1=O	inconclusive: 7.94 µM [inhibitor, partial curve]	–
Cc1cc(C)cc(N(CCC(=O)Nc2nnc(C)s2)S(=O)(=O)c2ccc(Cl)cc2)c1	inconclusive: 0.501 µM [inhibitor, full curve, poor fit]	–
O=C(Nc1cccnc1)c1cc(-c2cccc(Cl)c2)on1	inconclusive: 0.794 µM [inhibitor, full curve, poor fit]	–
Cc1cc(C(=O)CSc2nnc(-c3ccccc3)n2C)c(C)n1C	–	inactive: -25.5%
NC(=O)C1CC(=O)N(c2ccc(OCc3c(F)cccc3Cl)cc2)C1 (configuration not stated)	inconclusive: 3.98 µM [inhibitor, full curve]	–
COc1ccc(CC(=O)NCc2ccc3c(c2)CCN3C(=O)c2ccc(Cl)cc2)cc1	inconclusive: 39.8 µM [inhibitor, partial curve]	–
CC(C)Oc1ccc(CNC(=O)c2cccc(NC(=O)N3CCSc4ncccc43)c2)cc1	–	inactive: 13.6%

3 compounds from above, ordered by SMILES length, ascending.
Compound	Potency	activity change, negative = inhibition
O=C(Nc1cccnc1)c1cc(-c2cccc(Cl)c2)on1	inconclusive: 0.794 µM [inhibitor, full curve, poor fit]	–
Cc1cc(C(=O)CSc2nnc(-c3ccccc3)n2C)c(C)n1C	–	inactive: -25.5%
CC(C)Oc1ccc(CNC(=O)c2cccc(NC(=O)N3CCSc4ncccc43)c2)cc1	–	inactive: 13.6%
